Measured values taken from patent US20240374644A1.
These are yes or no findings as the source states them, for the method shown. Some entries that bind do so weakly or less than the wild type.

Target: T1, ERVK6 HERV-K Env surface protein (human) (UniProt Q69384)
T1 sequence (looked up): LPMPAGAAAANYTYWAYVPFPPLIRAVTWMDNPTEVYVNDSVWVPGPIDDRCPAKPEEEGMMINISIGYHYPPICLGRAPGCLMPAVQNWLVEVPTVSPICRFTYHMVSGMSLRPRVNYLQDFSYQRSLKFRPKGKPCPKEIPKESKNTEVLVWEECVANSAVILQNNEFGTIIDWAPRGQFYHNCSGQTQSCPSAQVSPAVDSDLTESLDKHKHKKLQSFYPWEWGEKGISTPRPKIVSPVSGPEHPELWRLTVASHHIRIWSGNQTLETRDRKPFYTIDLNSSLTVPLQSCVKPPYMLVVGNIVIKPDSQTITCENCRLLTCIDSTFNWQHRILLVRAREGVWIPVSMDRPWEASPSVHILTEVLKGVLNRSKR
Experiment: immunoblot

B1: m6H5 murine anti-HERV-K monoclonal antibody (antibody, V domains shown)
VH: QVKLQQSGPDLVKPGASVKISCKASGYSFTGYYMHWVKQSHGKSLEWIGRVNPNSGGTSYNQKFKDKAILTVDKSSSTAYMELRSLTSEDSAVYYCARSKGNYFYAMDYWGQGTTVTVSS
VL: DIELTQSPASLAVSLGQRATISCRASESVDSHGTSFMHWYQQKPGQPPKFLIYRASNLESGIPARFSGSGSRTDFTLTINPVETDDVAIYYCQQSNEDPPTFGGGTKLEIK
binding: binds
